Part of at least one peptide drawing is inferred or uncertain, most often the ends. Residues, ends and D or L forms follow the SMILES beside them.
Assays:
TcdB2 = assay type: binding, Clostridium difficile
CHO-K1 cells = assay type: cell-based
[1] = test system: TcdB induced glucosylation of intracellular Rac1; assay type: cell-based
[2] = molecular target: TcdB glucosyltransferase domain (GTDTcdB1) (Clostridioides difficile, UniProt P18177); assay type: biochemical, Clostridium difficile
TcdB1 = TcdB1 (Clostridioides difficile, UniProt P18177); assay type: biochemical, Clostridium difficile

`CC(C)C[C@H](NC(=O)[C@H](CCCCN)NC(=O)[C@H](CC(N)=O)NC(=O)[C@H](C)NC(=O)[C@H](CC(C)C)NC(=O)[C@@H](NC(=O)[C@H](CCCCN)NC(=O)[C@H](CC(=O)O)NC(=O)[C@H](CCCCN)NC(=O)[C@H](Cc1ccccc1)NC(=O)[C@@H](NC(=O)[C@@H](N)CC(N)=O)C(C)C)[C@@H](C)O)C(=O)N[C@@H](CO)C(=O)N[C@@H](Cc1ccccc1)C(=O)N[C@@H](CC(N)=O)C(=O)N[C@@H](Cc1ccccc1)C(=O)N[C@@H](CO)C(=O)N[C@@H](CC(=O)O)C(=O)N[C@@H](CCCCN)C(=O)O` [PepB1] (H-NVFKDKTLANKLSFNFSDK-OH) was tested, and the “binding to sensor chip conjugated TcdB (SPR)” value (TcdB2) was “not detected”, the “amount of CROPAF488 that entered cells” value (CHO-K1 cells) was “did not display such an activity” and the TcdB inhibitory activity (TcdB) was “lacks TcdB inhibitory activity”.
With `CC[C@H](C)[C@H](NC(=O)[C@H](CCCCN)NC(=O)[C@H](CC(=O)O)NC(=O)[C@H](CO)NC(=O)[C@@H](NC(=O)[C@@H](NC(=O)[C@H](CC(N)=O)NC(=O)CNC(=O)[C@H](CCCCN)NC(=O)[C@H](Cc1ccccc1)NC(=O)[C@@H](NC(=O)[C@@H](N)CC(N)=O)C(C)C)[C@@H](C)O)[C@@H](C)CC)C(=O)N[C@@H](CO)C(=O)N[C@@H](Cc1ccccc1)C(=O)N[C@@H](CC(N)=O)C(=O)N[C@@H](Cc1ccccc1)C(=O)N[C@@H](CO)C(=O)N[C@@H](CC(=O)O)C(=O)N[C@@H](CCCCN)C(=O)O` [PepB2] the “affinity of binding to TcdB (qualitative)” value (TcdB2) was “relatively low affinity”, the “binding to sensor chip conjugated TcdB (SPR)” value (TcdB2) was “binds sensor chip conjugated TcdB” and the “molecules of PepB2 calculated to bind a single molecule of TcdB” value (TcdB2) was “approximately 250 molecules”. For the same compound, the “amount of CROPAF488 that entered cells” value (CHO-K1 cells) was “increased the amount of CROPAF488 that entered cells”, the “cellular uptake of dextran” value (CHO-K1 cells) was “significant increase in cell entry” and the “cellular uptake of double stranded RNA (dsRNA)” value (CHO-K1 cells) was “significant increase in cell entry”. For the same compound, the “cellular uptake of transferrin” value (CHO-K1 cells) was “significant increase in cell entry”, the “overall interactions between CROPAF488 and cells” value (CHO-K1 cells) was “increased overall interactions” and the “TcdB induced glucosylation of intracellular Rac1” value [1] was “prevented the intracellular glucosylation of Rac1”. For the same compound, the “in vitro activity of the TcdB glucosyltransferase domain (GTD)” value [2] was “had no effect” and the “in vitro glucosyltransferase activity of TcdB” value (TcdB1) was “modest increase”.
